These are yes or no findings as the source states them, for the method shown. In cells and extracts the contact can be indirect. Here binding means that the protein was enriched with, or labelled near, the bait; the list need not be complete.
T1: tetraspanin Co-029/tspan8 (UniProt P19075)
T1 sequence: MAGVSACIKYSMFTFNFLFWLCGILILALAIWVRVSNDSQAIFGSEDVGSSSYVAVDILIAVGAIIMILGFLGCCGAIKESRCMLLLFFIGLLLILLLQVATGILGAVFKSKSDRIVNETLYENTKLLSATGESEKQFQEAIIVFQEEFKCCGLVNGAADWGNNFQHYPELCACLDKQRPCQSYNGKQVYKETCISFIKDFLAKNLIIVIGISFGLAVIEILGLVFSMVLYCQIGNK

Sequences of proteins named here, by UniProt entry; tags and fusion partners are left off. Residues count along the entry.
UniProt P21926: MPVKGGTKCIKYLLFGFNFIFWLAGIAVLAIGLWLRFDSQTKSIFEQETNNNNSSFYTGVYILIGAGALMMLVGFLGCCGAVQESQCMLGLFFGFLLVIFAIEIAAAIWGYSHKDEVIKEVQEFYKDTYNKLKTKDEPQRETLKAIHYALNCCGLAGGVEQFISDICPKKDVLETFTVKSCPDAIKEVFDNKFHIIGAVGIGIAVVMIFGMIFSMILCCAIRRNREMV
UniProt O14672, residues 214-748: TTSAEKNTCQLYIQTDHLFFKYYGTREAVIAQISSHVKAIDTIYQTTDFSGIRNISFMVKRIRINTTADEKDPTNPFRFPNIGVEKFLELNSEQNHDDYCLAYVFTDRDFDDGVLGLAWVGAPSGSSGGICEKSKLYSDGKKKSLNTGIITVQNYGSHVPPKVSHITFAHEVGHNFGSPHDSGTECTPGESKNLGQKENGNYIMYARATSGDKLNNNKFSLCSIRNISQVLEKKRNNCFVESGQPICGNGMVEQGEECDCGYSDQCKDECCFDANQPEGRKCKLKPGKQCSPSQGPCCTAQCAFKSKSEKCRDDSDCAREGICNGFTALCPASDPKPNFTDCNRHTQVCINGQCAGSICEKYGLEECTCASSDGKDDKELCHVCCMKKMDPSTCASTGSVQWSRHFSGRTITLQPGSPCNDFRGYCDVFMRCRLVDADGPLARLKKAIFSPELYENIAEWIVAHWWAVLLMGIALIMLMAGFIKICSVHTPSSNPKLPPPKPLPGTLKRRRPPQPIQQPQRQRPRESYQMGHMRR
UniProt P78536, residues 215-824: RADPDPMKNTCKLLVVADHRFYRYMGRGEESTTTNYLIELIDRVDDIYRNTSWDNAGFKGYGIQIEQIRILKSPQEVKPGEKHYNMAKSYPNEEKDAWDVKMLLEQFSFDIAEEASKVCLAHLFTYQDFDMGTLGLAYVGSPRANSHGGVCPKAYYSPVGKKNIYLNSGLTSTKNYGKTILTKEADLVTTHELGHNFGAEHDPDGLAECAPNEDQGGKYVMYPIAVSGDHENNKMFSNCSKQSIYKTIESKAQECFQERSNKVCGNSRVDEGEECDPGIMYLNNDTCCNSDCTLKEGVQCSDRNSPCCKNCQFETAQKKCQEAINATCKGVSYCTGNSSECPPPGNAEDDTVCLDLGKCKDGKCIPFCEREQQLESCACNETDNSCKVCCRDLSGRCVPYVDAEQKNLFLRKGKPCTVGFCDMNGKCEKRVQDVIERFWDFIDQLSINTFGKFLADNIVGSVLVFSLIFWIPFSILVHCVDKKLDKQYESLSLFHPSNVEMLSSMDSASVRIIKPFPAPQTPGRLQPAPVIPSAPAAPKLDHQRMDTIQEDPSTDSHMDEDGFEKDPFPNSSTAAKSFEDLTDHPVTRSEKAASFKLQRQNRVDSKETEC
UniProt P08962: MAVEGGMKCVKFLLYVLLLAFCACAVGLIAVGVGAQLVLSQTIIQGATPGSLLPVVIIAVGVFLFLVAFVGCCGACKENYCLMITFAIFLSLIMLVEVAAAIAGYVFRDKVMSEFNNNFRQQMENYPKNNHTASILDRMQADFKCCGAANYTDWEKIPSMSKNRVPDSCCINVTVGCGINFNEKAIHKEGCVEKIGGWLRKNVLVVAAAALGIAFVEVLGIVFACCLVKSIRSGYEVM
UniProt P32004, residues 20-1257: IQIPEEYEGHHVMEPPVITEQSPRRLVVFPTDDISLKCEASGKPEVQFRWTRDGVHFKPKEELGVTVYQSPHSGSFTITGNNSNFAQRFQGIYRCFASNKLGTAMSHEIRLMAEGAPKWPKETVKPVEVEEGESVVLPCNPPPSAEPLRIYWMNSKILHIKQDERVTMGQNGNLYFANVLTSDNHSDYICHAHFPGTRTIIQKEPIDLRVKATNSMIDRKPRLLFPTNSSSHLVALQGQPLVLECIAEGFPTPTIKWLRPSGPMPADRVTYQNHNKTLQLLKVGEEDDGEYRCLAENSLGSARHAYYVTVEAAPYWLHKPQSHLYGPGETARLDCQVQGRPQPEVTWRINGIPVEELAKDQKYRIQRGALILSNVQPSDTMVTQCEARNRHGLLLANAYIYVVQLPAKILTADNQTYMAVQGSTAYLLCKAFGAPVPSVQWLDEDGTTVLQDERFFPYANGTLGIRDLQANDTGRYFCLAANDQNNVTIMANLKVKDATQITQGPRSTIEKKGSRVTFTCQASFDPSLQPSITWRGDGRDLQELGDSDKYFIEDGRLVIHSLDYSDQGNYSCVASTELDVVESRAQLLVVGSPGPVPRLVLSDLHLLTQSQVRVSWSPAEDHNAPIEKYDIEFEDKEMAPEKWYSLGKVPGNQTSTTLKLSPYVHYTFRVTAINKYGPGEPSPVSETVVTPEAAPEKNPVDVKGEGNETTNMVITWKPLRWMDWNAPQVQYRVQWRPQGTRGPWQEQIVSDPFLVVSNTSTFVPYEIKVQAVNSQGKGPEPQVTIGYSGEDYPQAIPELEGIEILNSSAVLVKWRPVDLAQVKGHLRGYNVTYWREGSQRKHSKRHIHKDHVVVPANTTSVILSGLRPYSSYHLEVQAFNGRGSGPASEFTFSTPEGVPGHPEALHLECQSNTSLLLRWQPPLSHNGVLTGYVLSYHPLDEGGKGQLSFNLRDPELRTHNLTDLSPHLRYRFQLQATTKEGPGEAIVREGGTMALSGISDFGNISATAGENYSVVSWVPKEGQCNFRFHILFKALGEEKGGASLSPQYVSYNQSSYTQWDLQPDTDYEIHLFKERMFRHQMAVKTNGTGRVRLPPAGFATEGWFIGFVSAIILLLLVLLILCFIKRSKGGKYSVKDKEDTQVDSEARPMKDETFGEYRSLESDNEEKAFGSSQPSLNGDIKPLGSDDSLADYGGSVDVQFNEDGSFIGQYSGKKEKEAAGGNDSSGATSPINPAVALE
UniProt Q03405, residues 23-305: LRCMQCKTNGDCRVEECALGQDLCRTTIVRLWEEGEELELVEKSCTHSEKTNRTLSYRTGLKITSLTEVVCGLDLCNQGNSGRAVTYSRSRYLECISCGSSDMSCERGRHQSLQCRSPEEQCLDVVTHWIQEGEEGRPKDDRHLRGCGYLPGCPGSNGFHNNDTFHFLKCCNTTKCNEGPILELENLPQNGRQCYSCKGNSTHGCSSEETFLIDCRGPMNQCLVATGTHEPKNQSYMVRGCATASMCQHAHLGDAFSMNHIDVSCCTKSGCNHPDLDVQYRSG
UniProt Q9NRY6: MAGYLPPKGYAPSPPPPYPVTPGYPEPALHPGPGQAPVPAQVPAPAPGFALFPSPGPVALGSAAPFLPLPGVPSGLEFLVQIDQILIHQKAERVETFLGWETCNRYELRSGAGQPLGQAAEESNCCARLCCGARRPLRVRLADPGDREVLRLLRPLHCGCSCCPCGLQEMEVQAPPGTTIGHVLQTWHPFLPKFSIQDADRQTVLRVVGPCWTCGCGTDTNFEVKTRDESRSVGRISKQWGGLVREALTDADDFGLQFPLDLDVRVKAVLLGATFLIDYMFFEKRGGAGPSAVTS
UniProt P31431, residues 19-198: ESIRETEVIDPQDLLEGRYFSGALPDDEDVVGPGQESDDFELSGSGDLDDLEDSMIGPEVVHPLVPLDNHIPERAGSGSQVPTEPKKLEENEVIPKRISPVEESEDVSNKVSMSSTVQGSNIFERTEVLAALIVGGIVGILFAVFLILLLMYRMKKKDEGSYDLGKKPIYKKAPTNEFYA
UniProt Q9P273: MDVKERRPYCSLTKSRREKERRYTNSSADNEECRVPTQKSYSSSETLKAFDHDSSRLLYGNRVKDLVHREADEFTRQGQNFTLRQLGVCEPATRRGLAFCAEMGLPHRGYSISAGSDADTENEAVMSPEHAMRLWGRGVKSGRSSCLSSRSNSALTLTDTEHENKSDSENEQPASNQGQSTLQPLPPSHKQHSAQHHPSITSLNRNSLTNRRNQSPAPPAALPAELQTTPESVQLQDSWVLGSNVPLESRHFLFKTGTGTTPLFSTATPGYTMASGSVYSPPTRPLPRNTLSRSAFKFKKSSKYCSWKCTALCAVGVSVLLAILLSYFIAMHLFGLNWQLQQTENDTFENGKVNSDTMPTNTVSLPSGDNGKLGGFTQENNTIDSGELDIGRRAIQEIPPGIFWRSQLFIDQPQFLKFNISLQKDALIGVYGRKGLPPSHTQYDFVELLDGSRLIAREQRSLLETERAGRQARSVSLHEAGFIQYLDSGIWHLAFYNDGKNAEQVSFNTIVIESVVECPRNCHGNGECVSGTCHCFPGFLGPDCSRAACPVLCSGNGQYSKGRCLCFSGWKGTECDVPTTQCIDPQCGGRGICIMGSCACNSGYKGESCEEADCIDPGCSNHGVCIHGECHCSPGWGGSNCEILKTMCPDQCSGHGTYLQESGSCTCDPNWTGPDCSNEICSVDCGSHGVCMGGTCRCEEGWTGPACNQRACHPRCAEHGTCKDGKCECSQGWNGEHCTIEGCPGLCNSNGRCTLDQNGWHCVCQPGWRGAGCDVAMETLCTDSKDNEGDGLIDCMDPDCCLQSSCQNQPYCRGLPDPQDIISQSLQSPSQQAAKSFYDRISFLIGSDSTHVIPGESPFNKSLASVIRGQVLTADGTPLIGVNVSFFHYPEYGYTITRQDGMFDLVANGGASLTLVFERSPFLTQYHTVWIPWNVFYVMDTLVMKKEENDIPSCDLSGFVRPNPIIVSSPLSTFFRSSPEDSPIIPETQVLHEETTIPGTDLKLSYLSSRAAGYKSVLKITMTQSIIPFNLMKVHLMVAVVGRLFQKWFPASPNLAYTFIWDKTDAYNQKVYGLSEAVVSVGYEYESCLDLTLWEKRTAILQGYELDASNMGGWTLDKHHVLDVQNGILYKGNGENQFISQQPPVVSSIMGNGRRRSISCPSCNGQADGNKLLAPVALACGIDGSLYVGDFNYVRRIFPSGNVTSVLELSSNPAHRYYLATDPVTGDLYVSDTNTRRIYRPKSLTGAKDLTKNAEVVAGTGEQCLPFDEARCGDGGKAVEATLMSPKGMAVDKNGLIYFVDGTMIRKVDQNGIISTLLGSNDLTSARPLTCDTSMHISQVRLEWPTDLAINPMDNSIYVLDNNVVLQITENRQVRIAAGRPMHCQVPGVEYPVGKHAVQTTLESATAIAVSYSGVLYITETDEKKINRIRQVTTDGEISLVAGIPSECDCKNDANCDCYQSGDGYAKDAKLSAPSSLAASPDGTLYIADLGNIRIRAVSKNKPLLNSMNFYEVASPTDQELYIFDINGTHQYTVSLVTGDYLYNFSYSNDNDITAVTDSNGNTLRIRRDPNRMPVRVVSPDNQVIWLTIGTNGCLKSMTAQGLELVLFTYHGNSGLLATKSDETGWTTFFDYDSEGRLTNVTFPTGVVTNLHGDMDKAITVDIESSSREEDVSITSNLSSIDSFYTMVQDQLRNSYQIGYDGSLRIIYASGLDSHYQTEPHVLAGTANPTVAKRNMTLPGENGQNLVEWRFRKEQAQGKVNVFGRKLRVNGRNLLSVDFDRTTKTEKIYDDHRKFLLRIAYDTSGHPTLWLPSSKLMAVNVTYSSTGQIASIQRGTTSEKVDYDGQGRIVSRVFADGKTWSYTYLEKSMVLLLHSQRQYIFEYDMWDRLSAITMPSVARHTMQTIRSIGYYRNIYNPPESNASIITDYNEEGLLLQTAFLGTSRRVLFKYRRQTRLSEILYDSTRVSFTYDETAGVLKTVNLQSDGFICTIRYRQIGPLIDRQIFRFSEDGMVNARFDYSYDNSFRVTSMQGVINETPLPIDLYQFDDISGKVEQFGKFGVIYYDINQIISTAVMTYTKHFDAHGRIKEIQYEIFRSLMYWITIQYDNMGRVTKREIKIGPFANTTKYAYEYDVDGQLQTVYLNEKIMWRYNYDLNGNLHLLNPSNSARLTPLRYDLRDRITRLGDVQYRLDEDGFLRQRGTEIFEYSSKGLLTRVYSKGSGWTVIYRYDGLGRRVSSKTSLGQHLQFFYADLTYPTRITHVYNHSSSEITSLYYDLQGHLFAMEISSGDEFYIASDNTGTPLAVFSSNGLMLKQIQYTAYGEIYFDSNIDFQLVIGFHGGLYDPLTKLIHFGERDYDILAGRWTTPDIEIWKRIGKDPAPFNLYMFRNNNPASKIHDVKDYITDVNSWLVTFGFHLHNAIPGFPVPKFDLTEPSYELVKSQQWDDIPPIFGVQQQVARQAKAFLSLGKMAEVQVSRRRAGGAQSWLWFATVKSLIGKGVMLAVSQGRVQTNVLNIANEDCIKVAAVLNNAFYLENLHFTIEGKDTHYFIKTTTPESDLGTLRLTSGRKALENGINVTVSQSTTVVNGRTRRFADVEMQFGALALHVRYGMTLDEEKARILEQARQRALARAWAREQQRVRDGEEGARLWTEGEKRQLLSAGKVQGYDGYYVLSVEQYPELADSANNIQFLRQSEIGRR
UniProt P32856: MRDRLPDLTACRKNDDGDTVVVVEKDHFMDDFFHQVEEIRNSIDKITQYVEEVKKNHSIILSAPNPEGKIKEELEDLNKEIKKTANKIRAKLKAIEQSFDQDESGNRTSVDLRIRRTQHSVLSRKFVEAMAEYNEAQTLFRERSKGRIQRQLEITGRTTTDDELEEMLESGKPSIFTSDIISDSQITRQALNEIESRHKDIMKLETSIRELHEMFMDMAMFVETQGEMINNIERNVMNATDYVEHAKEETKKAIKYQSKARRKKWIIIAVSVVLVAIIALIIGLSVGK


Tests used:
[1] = molecular target: T1, tetraspanin Co-029/tspan8; experiment: affinity purification with mass spectrometry; 1% Brij97 lysates of Isreco1 and Is1-Co029 cells cultured on collagen I (also on tissue culture plastic); beads coupled to mAb Ts9 (CD9) or TS29.2 (Co-029); SDS-PAGE, in-gel trypsin digestion, LC-MS/MS
[2] = molecular target: CD9 (human (endogenous in Isreco1)) (UniProt P21926); experiment: as above

binding [1] | binding [2] | Molecule
binds |  | ADAM10 (from UniProt O14672 214-748)
binds |  | ADAM17 (from UniProt P78536 215-824)
binds | binds | ATP1B3 (from UniProt P54709 1-279)
binds |  | BSG (from UniProt P35613-2)
binds |  | CD9 (from UniProt P21926 1-228)
binds | binds | CD46 (from UniProt P15529 35-392)
binds | binds | CD63 (from UniProt P08962 1-238)
binds |  | CD97 (human (endogenous in Isreco1))
binds | binds | CDCP1 (from UniProt Q9H5V8 30-836)
binds | binds | CLDN1 (from UniProt O95832 1-211)
binds |  | E-cadherin (human (endogenous in Isreco1))
binds | binds | GGT1 (from UniProt P19440 1-569)
binds |  | GPR56 (human (endogenous in Isreco1))
binds |  | GPR110 (human (endogenous in Isreco1))
binds |  | GPR126 (human (endogenous in Isreco1))
binds |  | ITGA3 (human (endogenous in Isreco1))
binds |  | ITGA6 (human (endogenous in Isreco1))
binds | binds | ITGB1 (from UniProt P05556 21-798)

binding [1] | binding [2] | Molecule
binds | binds | L1CAM (from UniProt P32004 20-1257)
binds | binds | LDLR (from UniProt P01130 22-860)
binds | binds | MCAM (from UniProt P43121 24-646)
binds |  | NOTCH2 (human (endogenous in Isreco1))
binds | binds | PCDH1 (from UniProt Q08174 58-1060)
binds | binds | PLAUR (from UniProt Q03405 23-305)
binds | binds | PLSCR3 (from UniProt Q9NRY6 1-295)
binds | binds | SDC4 (from UniProt P31431 19-198)
binds | binds | SLC3A2 (from UniProt P08195 1-529)
binds | binds | TENM3 (from UniProt Q9P273 1-2699)
binds |  | IGSF8 (protein, UniProt Q969P0 28-613) REVLVPEGPLYRVAGTAVSISCNVTGYEGPAQQNFEWFLYRPEAPDTALGIVSTKDTQFSYAVFKSRVVAGEVQVQRLQGDAVVLKIARLQAQDAGIYECHTPSTDTRYLGSYSGKVELRVLPDVLQVSAAPPGPRGRQAPTSPPRMTVHEGQELALGCLARTSTQKHTHLAVSFGRSVPEAPVGRSTLQEVVGIRSDLAVEAGAPYAERLAAGELRLGKEGTDRYRMVVGGAQAGDAGTYHCTAAEWIQDPDGSWAQIAEKRAVLAHVDVQTLSSQLAVTVGPGERRIGPGEPLELLCNVSGALPPAGRHAAYSVGWEMAPAGAPGPGRLVAQLDTEGVGSLGPGYEGRHIAMEKVASRTYRLRLEAARPGDAGTYRCLAKAYVRGSGTRLREAASARSRPLPVHVREEGVVLEAVAWLAGGTVYRGETASLLCNISVRGGPPGLRLAASWWVERPEDGELSSVPAQLVGGVGQDGVAELGVRPGGGPVSVELVGPRSHRLRLHSLGPEDEGVYHCAPSAWVQHADYSWYQAGSARSGPVTVYPYMHALDTLFVPLLVGTGVALVTGATVLGTITCCFMKRLRKR
 | binds | tetraspanin Co-029/tspan8 (protein, UniProt P19075 1-237) MAGVSACIKYSMFTFNFLFWLCGILILALAIWVRVSNDSQAIFGSEDVGSSSYVAVDILIAVGAIIMILGFLGCCGAIKESRCMLLLFFIGLLLILLLQVATGILGAVFKSKSDRIVNETLYENTKLLSATGESEKQFQEAIIVFQEEFKCCGLVNGAADWGNNFQHYPELCACLDKQRPCQSYNGKQVYKETCISFIKDFLAKNLIIVIGISFGLAVIEILGLVFSMVLYCQIGNK
binds | binds | SLC44A1 (protein, UniProt Q8WWI5 1-657) MGCCSSASSAAQSSKREWKPLEDRSCTDIPWLLLFILFCIGMGFICGFSIATGAAARLVSGYDSYGNICGQKNTKLEAIPNSGMDHTQRKYVFFLDPCNLDLINRKIKSVALCVAACPRQELKTLSDVQKFAEINGSALCSYNLKPSEYTTSPKSSVLCPKLPVPASAPIPFFHRCAPVNISCYAKFAEALITFVSDNSVLHRLISGVMTSKEIILGLCLLSLVLSMILMVIIRYISRVLVWILTILVILGSLGGTGVLWWLYAKQRRSPKETVTPEQLQIAEDNLRALLIYAISATVFTVILFLIMLVMRKRVALTIALFHVAGKVFIHLPLLVFQPFWTFFALVLFWVYWIMTLLFLGTTGSPVQNEQGFVEFKISGPLQYMWWYHVVGLIWISEFILACQQMTVAGAVVTYYFTRDKRNLPFTPILASVNRLIRYHLGTVAKGSFIITLVKIPRMILMYIHSQLKGKENACARCVLKSCICCLWCLEKCLNYLNQNAYTATAINSTNFCTSAKDAFVILVENALRVATINTVGDFMLFLGKVLIVCSTGLAGIMLLNYQQDYTVWVLPLIIVCLFAFLVAHCFLSIYEMVVDVLFLCFAIDTKYNDGSPGREFYMDKVLMEFVENSRKAMKEAGKGGVADSRELKPMASGASSA
binds |  | PTGFRN (protein, UniProt Q9P2B2 26-879) VPTATLVRVVGTELVIPCNVSDYDGPSEQNFDWSFSSLGSSFVELASTWEVGFPAQLYQERLQRGEILLRRTANDAVELHIKNVQPSDQGHYKCSTPSTDATVQGNYEDTVQVKVLADSLHVGPSARPPPSLSLREGEPFELRCTAASASPLHTHLALLWEVHRGPARRSVLALTHEGRFHPGLGYEQRYHSGDVRLDTVGSDAYRLSVSRALSADQGSYRCIVSEWIAEQGNWQEIQEKAVEVATVVIQPSVLRAAVPKNVSVAEGKELDLTCNITTDRADDVRPEVTWSFSRMPDSTLPGSRVLARLDRDSLVHSSPHVALSHVDARSYHLLVRDVSKENSGYYYCHVSLWAPGHNRSWHKVAEAVSSPAGVGVTWLEPDYQVYLNASKVPGFADDPTELACRVVDTKSGEANVRFTVSWYYRMNRRSDNVVTSELLAVMDGDWTLKYGERSKQRAQDGDFIFSKEHTDTFNFRIQRTTEEDRGNYYCVVSAWTKQRNNSWVKSKDVFSKPVNIFWALEDSVLVVKARQPKPFFAAGNTFEMTCKVSSKNIKSPRYSVLIMAEKPVGDLSSPNETKYIISLDQDSVVKLENWTDASRVDGVVLEKVQEDEFRYRMYQTQVSDAGLYRCMVTAWSPVRGSLWREAATSLSNPIEIDFQTSGPIFNASVHSDTPSVIRGDLIKLFCIITVEGAALDPDDMAFDVSWFAVHSFGLDKAPVLLSSLDRKGIVTTSRRDWKSDLSLERVSVLEFLLQVHGSEDQDFGNYYCSVTPWVKSPTGSWQKEAEIHSKPVFITVKMDVLNAFKYPLLIGVGLSTVIGLLSCLIGYCSSHWCCKKEVQETRRERRRLMSMEMD
binds | binds | PLP2 (protein, UniProt Q04941 1-152) MADSERLSAPGCWAACTNFSRTRKGILLFAEIILCLVILICFSASTPGYSSLSVIEMILAAIFFVVYMCDLHTKIPFINWPWSDFFRTLIAAILYLITSIVVLVERGNHSKIVAGVLGLIATCLFGYDAYVTFPVRQPRHTAAPTDPADGPV
binds | binds | EPCAM (protein, UniProt P16422 24-314) QEECVCENYKLAVNCFVNNNRQCQCTSVGAQNTVICSKLAAKCLVMKAEMNGSKLGRRAKPEGALQNNDGLYDPDCDESGLFKAKQCNGTSMCWCVNTAGVRRTDKDTEITCSERVRTYWIIIELKHKAREKPYDSKSLRTALQKEITTRYQLDPKFITSILYENNVITIDLVQNSSQKTQNDVDIADVAYYFEKDVKGESLFHSKKMDLTVNGEQLDLDPGQTLIYYVDEKAPEFSMQGLKAGVIAVIVVVVIAVVAGIVVLVISRKKRMAKYEKAEIKEMGEMHRELNA
binds | binds | LMAN2 (protein, UniProt Q12907 45-356) DITDGNSEHLKREHSLIKPYQGVGSSSMPLWDFQGSTMLTSQYVRLTPDERSKEGSIWNHQPCFLKDWEMHVHFKVHGTGKKNLHGDGIALWYTRDRLVPGPVFGSKDNFHGLAIFLDTYPNDETTERVFPYISVMVNNGSLSYDHSKDGRWTELAGCTADFRNRDHDTFLAVRYSRGRLTVMTDLEDKNEWKNCIDITGVRLPTGYYFGASAGTGDLSDNHDIISMKLFQLMVEHTPDEESIDWTKIEPSVNFLKSPKDNVDDPTGNFRSGPLTGWRVFLLLLCALLGIVVCAVVGAVVFQKRQERNKRFY
binds |  | CD81 (protein, UniProt P60033 1-236) MGVEGCTKCIKYLLFVFNFVFWLAGGVILGVALWLRHDPQTTNLLYLELGDKPAPNTFYVGIYILIAVGAVMMFVGFLGCYGAIQESQCLLGTFFTCLVILFACEVAAGIWGFVNKDQIAKDVKQFYDQALQQAVVDDDANNAKAVVKTFHETLDCCGSSTLTALTTSVLKNNLCPSGSNIISNLFKEDCHQKIDDLFSGKLYLIGIAAIVVAVIMIFEMILSMVLCCGIRNSSVY

Molecule | binding [1] | binding [2]
STX2 (from UniProt P32856 1-288) | binds | binds

Source: PMC5432348
